Measured values taken from US6149937A, “Liposome encapsulated amphiphilic drug compositions” (priority 1996, dated 2000).

Assays:
[1] = Entrapment of MP^0 into MLVs (encapsulation efficiency); assay type: physicochemical
[2] = in 1 hr, pH 7.4, 37° C., 2.8 mg entrapped

In the case of `CN1CC[C@]23c4c5ccc(O)c4O[C@H]2[C@@H](O)C=C[C@H]3[C@H]1C5` [MP^0], the encapsulation efficiency ([1]; EPC/MP^0 20:1, text) is reported as “about 80%”, the association efficiency ([1]; mole ratio 40 or higher until 100) is reported as 35% and the “drug concentration in the PBS medium” value [2] is reported as 6000 to 8000 ng/mL.
